Data from patent US10696661B2, “Compounds” (Exonate Limited, priority 2015, dated 2020).
The structures given here were assigned with low confidence; some may be wrong.

System: laser-induced choroidal neovascularisation (CNV)
Assay: Laser-induced choroidal neovascularisation (CNV) in mice, topical eye drops
Settings: mouse, dose response trial

## O=C(Nc1cc(C(F)(F)F)ccc1N1CCN(Cc2ccccn2)CC1)c1ccc(-c2ccncc2)o1
  lowest dose at which effective as eye drop: 2 µg/mL
